Measured values as given in the supplement of paper PMC10849652.
This is one part of the list.

Protein sequences, listed by entry. Tags and fused reporters are not part of them. Lines headed by an entry give the natural chain unless they say otherwise; changes in a name come on top.
UniProt Q9H0E9, whole entry, looked up: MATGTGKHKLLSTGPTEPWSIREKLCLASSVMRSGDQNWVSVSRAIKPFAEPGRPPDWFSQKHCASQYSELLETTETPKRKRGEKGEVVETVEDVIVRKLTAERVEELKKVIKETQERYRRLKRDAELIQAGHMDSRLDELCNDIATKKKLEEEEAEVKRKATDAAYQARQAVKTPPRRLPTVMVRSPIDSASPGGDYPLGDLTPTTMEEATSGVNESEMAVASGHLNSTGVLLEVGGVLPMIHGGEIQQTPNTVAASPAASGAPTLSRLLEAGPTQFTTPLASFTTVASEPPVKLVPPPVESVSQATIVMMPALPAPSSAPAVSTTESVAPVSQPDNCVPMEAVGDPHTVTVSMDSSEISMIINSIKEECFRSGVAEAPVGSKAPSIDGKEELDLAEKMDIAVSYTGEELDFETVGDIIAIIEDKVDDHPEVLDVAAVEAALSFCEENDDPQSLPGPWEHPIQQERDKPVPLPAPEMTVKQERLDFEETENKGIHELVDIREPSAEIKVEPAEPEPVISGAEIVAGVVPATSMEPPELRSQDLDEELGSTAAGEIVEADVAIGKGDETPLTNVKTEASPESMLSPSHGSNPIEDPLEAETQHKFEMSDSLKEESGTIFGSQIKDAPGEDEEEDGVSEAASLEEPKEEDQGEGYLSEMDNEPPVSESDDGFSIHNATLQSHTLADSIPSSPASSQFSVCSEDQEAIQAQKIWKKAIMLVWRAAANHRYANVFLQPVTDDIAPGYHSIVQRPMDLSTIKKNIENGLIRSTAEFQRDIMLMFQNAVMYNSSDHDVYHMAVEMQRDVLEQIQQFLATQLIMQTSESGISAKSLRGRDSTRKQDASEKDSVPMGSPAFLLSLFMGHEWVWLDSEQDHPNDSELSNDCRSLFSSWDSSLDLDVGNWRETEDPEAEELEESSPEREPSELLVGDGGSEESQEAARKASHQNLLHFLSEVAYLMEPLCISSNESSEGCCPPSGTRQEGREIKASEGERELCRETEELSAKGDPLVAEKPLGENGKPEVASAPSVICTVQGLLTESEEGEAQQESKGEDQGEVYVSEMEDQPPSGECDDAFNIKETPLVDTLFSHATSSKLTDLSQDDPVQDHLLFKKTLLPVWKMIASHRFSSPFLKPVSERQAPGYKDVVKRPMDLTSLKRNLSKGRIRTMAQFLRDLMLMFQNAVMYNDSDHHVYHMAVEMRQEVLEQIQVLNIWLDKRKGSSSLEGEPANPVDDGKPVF
UniProt Q9UQB8: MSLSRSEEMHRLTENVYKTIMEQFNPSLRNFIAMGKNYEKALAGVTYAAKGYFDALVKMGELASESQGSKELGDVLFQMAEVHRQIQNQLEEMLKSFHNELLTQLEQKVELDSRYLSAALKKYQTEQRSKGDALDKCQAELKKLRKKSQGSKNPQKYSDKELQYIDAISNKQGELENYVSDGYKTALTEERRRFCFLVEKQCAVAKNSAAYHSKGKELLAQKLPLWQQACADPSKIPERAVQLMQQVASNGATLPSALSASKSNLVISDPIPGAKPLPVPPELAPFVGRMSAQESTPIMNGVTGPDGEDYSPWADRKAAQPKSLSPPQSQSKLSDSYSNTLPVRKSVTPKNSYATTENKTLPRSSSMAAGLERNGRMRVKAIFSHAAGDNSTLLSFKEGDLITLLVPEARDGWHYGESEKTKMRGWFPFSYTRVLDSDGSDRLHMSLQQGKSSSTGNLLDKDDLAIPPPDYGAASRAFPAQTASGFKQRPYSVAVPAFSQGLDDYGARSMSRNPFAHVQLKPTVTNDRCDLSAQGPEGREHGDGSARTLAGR
UniProt Q9BQE9, whole entry, looked up: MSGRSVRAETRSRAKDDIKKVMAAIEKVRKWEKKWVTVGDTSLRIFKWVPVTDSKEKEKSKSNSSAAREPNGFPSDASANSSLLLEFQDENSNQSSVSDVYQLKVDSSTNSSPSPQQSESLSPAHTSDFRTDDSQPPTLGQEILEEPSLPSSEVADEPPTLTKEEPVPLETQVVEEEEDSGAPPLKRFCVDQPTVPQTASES
UniProt Q8TDH9: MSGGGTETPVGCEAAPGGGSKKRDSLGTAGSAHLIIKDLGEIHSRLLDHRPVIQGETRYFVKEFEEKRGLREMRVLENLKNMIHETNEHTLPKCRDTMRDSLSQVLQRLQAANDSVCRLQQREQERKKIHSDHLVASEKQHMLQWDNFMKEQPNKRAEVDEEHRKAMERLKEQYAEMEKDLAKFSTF
UniProt Q9UL15: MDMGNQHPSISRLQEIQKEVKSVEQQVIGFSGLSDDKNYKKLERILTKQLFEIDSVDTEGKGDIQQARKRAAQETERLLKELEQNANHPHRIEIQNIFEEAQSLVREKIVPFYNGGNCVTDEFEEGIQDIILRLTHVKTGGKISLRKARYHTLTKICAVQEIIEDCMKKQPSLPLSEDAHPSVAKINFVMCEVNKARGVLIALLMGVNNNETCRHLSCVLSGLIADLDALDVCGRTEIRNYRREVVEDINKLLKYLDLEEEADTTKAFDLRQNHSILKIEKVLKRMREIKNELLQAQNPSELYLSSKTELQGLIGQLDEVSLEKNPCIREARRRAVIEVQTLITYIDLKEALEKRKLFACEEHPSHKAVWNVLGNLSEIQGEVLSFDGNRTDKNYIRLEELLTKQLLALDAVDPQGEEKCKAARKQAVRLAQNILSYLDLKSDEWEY
UniProt Q8TDN6: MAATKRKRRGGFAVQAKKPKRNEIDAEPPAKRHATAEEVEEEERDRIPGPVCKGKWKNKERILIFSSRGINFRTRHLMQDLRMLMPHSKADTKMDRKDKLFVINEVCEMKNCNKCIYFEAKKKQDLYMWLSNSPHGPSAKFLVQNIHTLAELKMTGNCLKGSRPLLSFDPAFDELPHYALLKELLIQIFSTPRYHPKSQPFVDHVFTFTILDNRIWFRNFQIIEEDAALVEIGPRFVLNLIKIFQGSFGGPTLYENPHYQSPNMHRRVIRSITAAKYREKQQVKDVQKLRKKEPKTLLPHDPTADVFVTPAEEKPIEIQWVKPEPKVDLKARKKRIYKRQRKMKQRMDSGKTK
UniProt Q6W2J9: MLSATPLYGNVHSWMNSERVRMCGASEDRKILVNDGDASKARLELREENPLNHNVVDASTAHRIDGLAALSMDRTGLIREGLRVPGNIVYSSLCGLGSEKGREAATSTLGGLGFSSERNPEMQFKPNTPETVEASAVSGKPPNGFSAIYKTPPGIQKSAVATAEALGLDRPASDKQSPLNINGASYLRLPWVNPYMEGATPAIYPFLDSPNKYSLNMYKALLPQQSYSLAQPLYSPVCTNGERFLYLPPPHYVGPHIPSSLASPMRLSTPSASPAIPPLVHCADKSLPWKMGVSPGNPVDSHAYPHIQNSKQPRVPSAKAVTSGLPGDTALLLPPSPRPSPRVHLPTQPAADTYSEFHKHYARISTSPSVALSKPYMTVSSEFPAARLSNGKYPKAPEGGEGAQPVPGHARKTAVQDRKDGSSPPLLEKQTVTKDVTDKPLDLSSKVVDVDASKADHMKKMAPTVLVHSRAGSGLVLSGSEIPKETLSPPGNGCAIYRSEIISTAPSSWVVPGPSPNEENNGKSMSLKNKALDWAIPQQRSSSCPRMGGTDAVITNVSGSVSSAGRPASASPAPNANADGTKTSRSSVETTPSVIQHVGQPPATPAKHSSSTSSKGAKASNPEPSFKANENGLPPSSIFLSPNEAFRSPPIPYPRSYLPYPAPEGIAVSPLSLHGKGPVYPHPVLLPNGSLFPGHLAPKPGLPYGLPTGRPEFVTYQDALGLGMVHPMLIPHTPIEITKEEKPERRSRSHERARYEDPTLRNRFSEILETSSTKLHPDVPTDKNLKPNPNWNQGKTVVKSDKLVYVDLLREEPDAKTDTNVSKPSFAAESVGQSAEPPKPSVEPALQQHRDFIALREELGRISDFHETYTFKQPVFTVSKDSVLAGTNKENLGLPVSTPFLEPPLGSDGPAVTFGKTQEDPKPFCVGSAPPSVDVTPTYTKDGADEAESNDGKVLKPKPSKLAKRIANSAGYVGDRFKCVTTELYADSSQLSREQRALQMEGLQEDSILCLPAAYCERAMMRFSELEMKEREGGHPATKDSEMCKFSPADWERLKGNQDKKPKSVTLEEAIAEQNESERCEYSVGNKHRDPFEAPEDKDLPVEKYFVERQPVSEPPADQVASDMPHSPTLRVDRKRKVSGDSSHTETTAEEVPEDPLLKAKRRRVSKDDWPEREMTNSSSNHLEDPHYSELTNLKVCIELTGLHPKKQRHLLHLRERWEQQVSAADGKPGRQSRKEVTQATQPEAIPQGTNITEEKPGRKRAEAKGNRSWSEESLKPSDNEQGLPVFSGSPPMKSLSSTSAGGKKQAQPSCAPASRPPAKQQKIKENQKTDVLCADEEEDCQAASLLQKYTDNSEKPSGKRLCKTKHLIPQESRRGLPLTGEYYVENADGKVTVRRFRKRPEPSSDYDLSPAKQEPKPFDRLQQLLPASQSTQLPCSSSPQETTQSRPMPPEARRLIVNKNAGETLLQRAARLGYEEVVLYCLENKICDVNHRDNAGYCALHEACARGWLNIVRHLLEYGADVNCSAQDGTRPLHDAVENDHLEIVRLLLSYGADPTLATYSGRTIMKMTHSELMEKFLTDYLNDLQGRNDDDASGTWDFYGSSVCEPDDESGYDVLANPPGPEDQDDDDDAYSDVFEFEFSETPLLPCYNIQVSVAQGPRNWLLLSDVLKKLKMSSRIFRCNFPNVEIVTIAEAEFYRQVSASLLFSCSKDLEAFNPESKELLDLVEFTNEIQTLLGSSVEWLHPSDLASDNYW
UniProt O15155: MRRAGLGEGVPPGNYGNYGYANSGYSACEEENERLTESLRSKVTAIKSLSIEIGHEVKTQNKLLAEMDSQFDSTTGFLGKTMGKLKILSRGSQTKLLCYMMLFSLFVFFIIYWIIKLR
UniProt Q99728: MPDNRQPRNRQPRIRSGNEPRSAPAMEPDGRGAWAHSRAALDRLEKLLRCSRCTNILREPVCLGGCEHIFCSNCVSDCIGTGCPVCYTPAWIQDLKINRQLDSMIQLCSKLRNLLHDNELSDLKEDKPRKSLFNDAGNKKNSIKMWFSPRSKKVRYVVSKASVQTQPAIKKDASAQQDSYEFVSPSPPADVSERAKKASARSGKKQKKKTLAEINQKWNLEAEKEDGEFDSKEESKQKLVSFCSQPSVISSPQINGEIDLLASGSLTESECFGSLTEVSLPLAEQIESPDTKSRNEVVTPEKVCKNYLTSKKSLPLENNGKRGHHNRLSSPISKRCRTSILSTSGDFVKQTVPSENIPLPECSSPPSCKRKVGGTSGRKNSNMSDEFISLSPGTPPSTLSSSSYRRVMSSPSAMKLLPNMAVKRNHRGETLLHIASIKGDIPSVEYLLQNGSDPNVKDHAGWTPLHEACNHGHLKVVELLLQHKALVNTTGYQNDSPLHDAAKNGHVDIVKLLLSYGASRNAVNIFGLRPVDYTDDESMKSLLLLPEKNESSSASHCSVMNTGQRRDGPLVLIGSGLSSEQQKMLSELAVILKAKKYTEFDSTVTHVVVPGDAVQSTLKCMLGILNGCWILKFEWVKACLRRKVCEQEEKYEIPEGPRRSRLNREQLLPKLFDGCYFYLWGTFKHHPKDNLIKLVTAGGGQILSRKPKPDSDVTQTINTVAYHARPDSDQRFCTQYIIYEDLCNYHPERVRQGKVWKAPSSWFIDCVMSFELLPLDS
UniProt Q9BXK5, whole entry, looked up: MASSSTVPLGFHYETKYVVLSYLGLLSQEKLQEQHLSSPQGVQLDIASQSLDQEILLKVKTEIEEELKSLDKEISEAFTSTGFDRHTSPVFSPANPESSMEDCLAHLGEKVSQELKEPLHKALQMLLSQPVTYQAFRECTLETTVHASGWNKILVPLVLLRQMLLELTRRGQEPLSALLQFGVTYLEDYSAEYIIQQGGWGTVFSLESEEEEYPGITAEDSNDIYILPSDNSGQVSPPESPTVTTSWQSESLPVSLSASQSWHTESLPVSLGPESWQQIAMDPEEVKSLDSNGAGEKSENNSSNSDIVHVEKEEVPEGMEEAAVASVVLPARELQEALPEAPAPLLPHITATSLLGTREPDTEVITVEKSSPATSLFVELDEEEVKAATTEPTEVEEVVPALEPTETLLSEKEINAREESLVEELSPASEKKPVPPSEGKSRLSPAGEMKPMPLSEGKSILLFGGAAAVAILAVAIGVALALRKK
UniProt Q6QNY0: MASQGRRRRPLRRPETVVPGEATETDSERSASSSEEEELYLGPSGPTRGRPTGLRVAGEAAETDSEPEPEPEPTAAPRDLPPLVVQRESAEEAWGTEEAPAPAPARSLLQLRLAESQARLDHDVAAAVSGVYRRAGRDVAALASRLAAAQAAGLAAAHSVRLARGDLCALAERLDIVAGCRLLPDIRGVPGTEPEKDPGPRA

Each target was assayed with CC(C)(O)CC(=O)NCCn1ccc2ncnc(Nc3ccc(Oc4cccc(C(F)(F)F)c4)c(Cl)c3)c21 (assay: log2 fold change, soluble protein after heating vs DMSO (PISA); higher = thermal stabilisation; K562 lysate, 10 uM; active = over 0.2 and 3.5 SD of the protein, either way, in both replicates (recomputed)).
In short: (§1)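 Pellets of K562 cells were dounce-homogenised in PBS pH 7.4 with 1 mM MgCl2, and the crude extract was held at 1 mg/mL protein for a 30 min treatment with 10 μM compound. Aliquots were heated for 3 min over 48°C-58°C and pooled before NP-40 was added to 0.5% at 4°C. The supernatant from 21,000xg for 90 min was quantified by TMTpro 16plex LC-MS/MS with channel sums equalised. Values are reported from duplicates as log-two fold change in thermal stability relative to solvent controls.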

log2 fold change, inactive:
BRD8 isoform 2 (UniProt Q9H0E9) -0.021
BAIAP2 (UniProt Q9UQB8) -0.004
BAG6 isoform 3 (UniProt P46379) -0.045
BPTF (UniProt Q12830) -0.03
BAG1 (UniProt Q99933) -0.03
BCL7B (UniProt Q9BQE9) 0.033
BCLAF1 (UniProt Q9NYF8) -0.008
BLOC1S5 (UniProt Q8TDH9) -0.006
BTN2A1 (UniProt Q7KYR7) -0.096
BAG5 isoform 2 (UniProt Q9UL15) -0.096
BCL2L2 isoform 2 (UniProt Q92843) -0.004
BRCA1 isoform 7 (UniProt P38398) -0.02
BRIX1 (UniProt Q8TDN6) 0.003
BCL7C isoform 2 (UniProt Q8WUZ0) 0.048
BTBD6 (UniProt Q96KE9) -0.292
BCOR (UniProt Q6W2J9) 0.035
BORCS5 (UniProt Q969J3) 0.012
BPHL (UniProt Q86WA6) 0.06
BET1 (UniProt O15155) 0.01
BNIP2 (UniProt J3KN59) -0.021
BORCS6 (UniProt Q96GS4) -0.021
BIRC5 (UniProt O15392) -0.013
BCAR1 isoform 6 (UniProt P56945) 0
BAG2 (UniProt O95816) 0.017
BARD1 (UniProt Q99728) 0.033
BTAF1 (UniProt O14981) -0.008
BSG (UniProt P35613) 0.036
BCAS2 (UniProt O75934) -0.026
BCKDHB (UniProt P21953) -0.01
BTF3L4 (UniProt Q96K17) -0.014
BID isoform 2 (UniProt P55957) -0.035
BCL2L13 (UniProt Q9BXK5) -0.059
BCKDK (UniProt O14874) -0.017
BLOC1S3 (UniProt Q6QNY0) -0.05

What follows are targets tested with CC(C)C1=C2N=C(C=C(N2N=C1)NCC3=CC=CC=C3)NCCCCCCN in the same assay as above.
In short: as §1

log2 fold change, inactive:
BRD8 isoform 2 (UniProt Q9H0E9) -0.005
BAIAP2 (UniProt Q9UQB8) -0.019
BAG6 isoform 3 (UniProt P46379) -0.006
BPTF (UniProt Q12830) 0.013
BAG1 (UniProt Q99933) -0.019
BCL7B (UniProt Q9BQE9) -0.056
BCLAF1 (UniProt Q9NYF8) 0.032
BLOC1S5 (UniProt Q8TDH9) 0.014
BTN2A1 (UniProt Q7KYR7) -0.03
BAG5 isoform 2 (UniProt Q9UL15) -0.04
BCL2L2 isoform 2 (UniProt Q92843) -0.013
BRCA1 isoform 7 (UniProt P38398) -0.022
BRIX1 (UniProt Q8TDN6) -0.02
BCL7C isoform 2 (UniProt Q8WUZ0) -0.033
BTBD6 (UniProt Q96KE9) 0.035
BCOR (UniProt Q6W2J9) -0.124
BORCS5 (UniProt Q969J3) 0.033
BPHL (UniProt Q86WA6) -0.045
BET1 (UniProt O15155) 0.035
BNIP2 (UniProt J3KN59) -0.002
BORCS6 (UniProt Q96GS4) 0
BIRC5 (UniProt O15392) -0.066
BCAR1 isoform 6 (UniProt P56945) 0.01
BAG2 (UniProt O95816) 0.007
BARD1 (UniProt Q99728) -0.067
BTAF1 (UniProt O14981) 0.003
BSG (UniProt P35613) -0.013
BCAS2 (UniProt O75934) 0.062
BCKDHB (UniProt P21953) -0.037
BTF3L4 (UniProt Q96K17) -0.041
BID isoform 2 (UniProt P55957) -0.014
BCL2L13 (UniProt Q9BXK5) -0.02
BCKDK (UniProt O14874) -0.001
BLOC1S3 (UniProt Q6QNY0) 0.013
